# According to the supplement of paper PMC5949888:
# Most values lie at the floor of the assay. Slopes are relative: functional sequences can read slightly below zero.
# System: Saccharomyces cerevisiae PS128 hsf1 delta, HSF1(1-493) fusion
# Experiment: growth estimate (transactivation domain function in HSF1 fusion, heat-shock survival) (a.u. (slope of normalised read count over time)); higher = stronger growth at 37°C, i.e. more transactivation activity
# Settings: library: random library
row,Substance,growth estimate
1,TRRA,< -0.25
2,GGKVRKATREDELRYSIGLP,< -0.25
3,PIRVEQPFLTRWVLLSIGG,< -0.25
4,SVPSTPRNRDMCSPTRDQ,< -0.25
5,CRI,< -0.25
6,SDWPRNSVGPYPATRCSGVP,< -0.25
7,RLNFSEQAARAWRVALHNEF,< -0.25
8,CLR,< -0.25
9,Child,< -0.25
10,GPRGRHILEGS,< -0.25
11,TSDDEVHMLWSDNGNFPPDF,0.213
12,LSRSALWGTFSGS,< -0.25
13,PALCGRNP,< -0.25
14,ICSRVWSHQMVEGGRAY,< -0.25
15,AQRKHTETIPGPGADPCTST,< -0.25
16,LPIGHVSDGRDKEPRRFGA,< -0.25
17,NIVNGFATCIAVSGL,< -0.25
18,GSFCLKQQRDVGT,< -0.25
19,SQCGLLQKIYVHHCEHRCRS,< -0.25
20,DGFITRQLCVTGRCGAVPSR,< -0.25
21,GGMS,< -0.25
22,TTSNARIHLLIYRRHIIECG,< -0.25
23,IALLWVVYRALSGRRSVGCT,< -0.25

# Reprinted at random: 2 records from the list, in no set order.
row,Substance,growth estimate
10,GPRGRHILEGS,< -0.25
4,SVPSTPRNRDMCSPTRDQ,< -0.25

# The list goes on.

row,Substance,growth estimate
1,HMKVGTYHVQIC,< -0.25
2,PVKTIFYYFVSHKPIMVFQS,< -0.25
3,GTPIR,< -0.25
4,PYENNAFKL,< -0.25
5,IDGSLLSDA,< -0.25
6,DKNIGQAGRGGIRGVGM,< -0.25
7,CGQTLGVGTR,< -0.25
8,NYRV,< -0.25
9,LQGY,< -0.25
10,RMRILAAPPPQAAGVQY,< -0.25
11,HARARRARRSVSHLCNNEAA,< -0.25
12,HNSDCRSVASRTKSYSDLGN,< -0.25
13,CSLCGNGPPANACGTRGGLA,< -0.25
14,TRRDITHAAVAVRRRK,< -0.25
15,VQHWVRTTGFLTNRRVC,< -0.25
16,ARGIASIDVIYEANRTSAEP,< -0.25
17,RIT,< -0.25
18,KGGAVLSLNPT,< -0.25
19,CQYLNSVA,< -0.25
20,VSCPFRWFICRLQTDCKPRR,< -0.25
21,ILSKPILLQFVRWCFQAWSL,< -0.25
22,ARKTVDN,< -0.25
23,FQPASSAHGSILECLIVPEE,4.08

row,Substance,growth estimate
1,PYFS,< -0.25
2,CVSFFNLFNQC,< -0.25
3,LYGRNCCAAWLLTKRGTPGR,< -0.25
4,RSQGPPCVQPCERGC,< -0.25
5,AQTKEETVSSSRSAISRKPQ,< -0.25
6,LRPVRLVTREFCQRKALHVE,< -0.25
7,GGPRFLLAPPAIGKQGGRTL,< -0.25
8,RTLCRCNALASCYGAARATD,< -0.25
9,LLLSGRWTSKLVSRGYQRDP,< -0.25
10,LDVYVTDQSPFAANSADNLV,< -0.25
11,YHFKRLTRALRDSHPCEGRY,< -0.25
12,GVEEINGNIKTVNRLRTNNA,< -0.25
13,TRTPCLN,< -0.25
14,QCPAGRM,< -0.25
15,LVVVL,< -0.25
16,TDVRKCRRSTLIAVALAQGA,< -0.25
17,ALFCTRSHYNV,< -0.25
18,STGESCKR,< -0.25
19,SRPFIRRYGGVRLSVLTVT,< -0.25
20,STKHELELCSSRGLARRPTV,< -0.25
21,TALM,-0.241
22,LRWRL,< -0.25
23,ESRSYSWQ,< -0.25

row,Substance,growth estimate
1,FEAKGCRGRMSMTRIAHVEG,< -0.25
2,SLVHCDFRYFAAPDWRSG,< -0.25
3,CLGRIVGSGTGGRYWRVCLV,< -0.25
4,TFGCMKAKYYHYQA,< -0.25
5,HFLDIVVSVL,< -0.25
6,CGGGTSDVNGYAARGLRTDA,< -0.25
7,SDRSMKALQS,< -0.25
8,KSRIIGPVDCDRPNEASPTR,< -0.25
9,TRRLRQRGSLFVFAKNGKNA,< -0.25
10,GASCPWAVIRWTGIVLVSRM,< -0.25
11,SEGIYALHYRRQFARIVERP,< -0.25
12,PTAVDWRTRSEAPLLRLLTL,< -0.25
13,LSPASNIALFLSGPIADR,< -0.25
14,CYQHVGRVGVRAGRAREST,< -0.25
15,SAIP,< -0.25
16,YSGCSGHMTMISSLLGCVRT,< -0.25
17,VQL,< -0.25
18,THGTMFMG,< -0.25
19,KTTPHFGARIQQALEDSQRR,< -0.25
20,WYASHG,< -0.25
21,VLSDKSYPGLMRRIKNSNAS,-0.247
22,THRIVGLEII,< -0.25
23,NRGFGKFYTRISGAVLTDRT,< -0.25

row,Substance,growth estimate
1,NSDVLFSVVHGWSVPYTRAA,< -0.25
2,GQLVPKEIVSRSANVRIPED,-0.182
3,SVGAGDTGKSEFRIVGMFAR,< -0.25
4,LTNS,< -0.25
5,GEREIQVEHRFYSFLKGKT,< -0.25
6,VTCTFSISIYKFGNSYK,< -0.25
7,RNRASCTGTGL,< -0.25
8,IHTSNDHGCDVASEKGVPRL,< -0.25
9,GKGWSTEA,< -0.25
10,HIILQIAAGCPRQ,< -0.25
11,MGHGWPGELRLGGLTSAI,< -0.25
12,IPSS,< -0.25
13,SRCPTKVTSKGIGF,< -0.25
14,RSAAGSMGG,< -0.25
15,WIR,< -0.25
16,TYLQGKGTWSSKFIRCLYPW,< -0.25
17,RRYSSRHSVLGSSLSKPLSV,-0.245
18,EKIQFLRFESRLVGTHYGML,< -0.25
19,SSSKAIPSSPKPGKATPPQH,< -0.25
20,SPTVSAEVSVARVDTWVSKG,< -0.25
21,LAMKLLPRLASSIENYGDVV,-0.234
22,RQVYGPAQRSKVRRWDA,< -0.25
23,RRLTPIVTWTKPGLTRESGL,< -0.25

# Not a retest: entries from further up.
row,Substance,growth estimate
15,AQRKHTETIPGPGADPCTST,< -0.25
16,LPIGHVSDGRDKEPRRFGA,< -0.25
17,NIVNGFATCIAVSGL,< -0.25

# Further entries

row,Substance,growth estimate
1,LCNTYQQFSECST,< -0.25
2,PGRRQEQYCSTFFMCSVHDL,< -0.25
3,PNTPTFVYGVVARRAPKPGI,< -0.25
4,RVENHVSQQVLPRILSLSRG,0.202
5,SDSFALTLLGATA,< -0.25
6,IIRLVKGFFLE,< -0.25
7,SLIFVIPMGRHMY,< -0.25
8,STSLVRYLDRNILRVVSK,< -0.25
9,IQCETLVLREVRGAE,< -0.25
10,KMA,< -0.25
11,KRKNRPAYAATISSE,< -0.25
12,DKRQLQNRNDR,< -0.25
13,GRLLAHDHFVRCSDTQRTEC,< -0.25
14,LESYVYPVGTAWLCRTYRTH,0.109
15,CRALVALLTYNFAAIHEPS,< -0.25
16,LALTETWGAPRTWQGCARSV,-0.245
17,RSAPSHSCPSIRRLLADYPC,< -0.25
18,GRQKLYNVACNPRVIYYAQP,< -0.25
19,NSVLSNLYRAGTGSVVAQRR,< -0.25
20,QDEEQGL,< -0.25
21,RSFTSHGSNGP,< -0.25
22,RCGVATCEQQGYAGLSTGPL,< -0.25
23,WYFVRVRGSGPKDGLGPTSI,< -0.25

row,Substance,growth estimate
1,VASVNATRTVAYPCH,< -0.25
2,ATCDSNTKGGGLRPTAPLAQ,< -0.25
3,GRLGLATIPSHIRTCAHVA,< -0.25
4,RLRKMKVGIYA,< -0.25
5,MGPLRQGHRSSYP,< -0.25
6,KINLY,< -0.25
7,SSHGVLRS,< -0.25
8,LRKSSDERGIRRLEGRNHEA,< -0.25
9,KAGHLAGGLFSRSKLVTL,< -0.25
10,RSEQEREERSKRLD,< -0.25
11,GTLDFYKALTYMSKSHLYHA,< -0.25
12,ERQAISTLLCLAGTGIPHGY,< -0.25
13,PGDRLIQVKRGWFRALVSWL,< -0.25
14,ERESLQLRYIRARRTPVVAL,< -0.25
15,KGGRSQTSSE,< -0.25
16,VGPKLRPGVRPGYGSSQMDR,< -0.25
17,NSIRRLVGIMRSKYLRRHVA,< -0.25
18,PTAGWTGSRGHPCLRKEKT,< -0.25
